The values that follow come from PMC12681812.

The chains behind the UniProt entries cited, without tags or fusion partners.
UniProt Q9R1E0: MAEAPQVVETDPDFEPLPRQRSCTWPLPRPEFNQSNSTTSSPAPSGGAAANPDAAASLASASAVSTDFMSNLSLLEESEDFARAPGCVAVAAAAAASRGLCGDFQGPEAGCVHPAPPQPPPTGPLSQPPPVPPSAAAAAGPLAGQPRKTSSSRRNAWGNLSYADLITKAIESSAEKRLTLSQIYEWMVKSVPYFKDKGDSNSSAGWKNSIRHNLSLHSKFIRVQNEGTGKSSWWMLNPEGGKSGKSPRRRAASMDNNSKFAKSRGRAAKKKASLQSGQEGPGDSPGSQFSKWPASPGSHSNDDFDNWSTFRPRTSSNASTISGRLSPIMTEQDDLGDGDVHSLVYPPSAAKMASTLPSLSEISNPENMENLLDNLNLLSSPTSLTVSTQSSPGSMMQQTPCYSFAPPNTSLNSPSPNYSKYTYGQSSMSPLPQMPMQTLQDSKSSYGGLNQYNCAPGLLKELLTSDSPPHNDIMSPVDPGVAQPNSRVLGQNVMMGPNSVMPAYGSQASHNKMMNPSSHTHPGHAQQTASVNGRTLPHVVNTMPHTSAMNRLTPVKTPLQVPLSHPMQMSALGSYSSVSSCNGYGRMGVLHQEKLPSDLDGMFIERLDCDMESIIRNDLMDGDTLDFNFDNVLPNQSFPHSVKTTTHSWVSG

Experiment [1] addresses T1, mouse Sin3a (NM_001110350.2) in pEGFP-N1 (mouse) (UniProt Q60520).
T1 sequence: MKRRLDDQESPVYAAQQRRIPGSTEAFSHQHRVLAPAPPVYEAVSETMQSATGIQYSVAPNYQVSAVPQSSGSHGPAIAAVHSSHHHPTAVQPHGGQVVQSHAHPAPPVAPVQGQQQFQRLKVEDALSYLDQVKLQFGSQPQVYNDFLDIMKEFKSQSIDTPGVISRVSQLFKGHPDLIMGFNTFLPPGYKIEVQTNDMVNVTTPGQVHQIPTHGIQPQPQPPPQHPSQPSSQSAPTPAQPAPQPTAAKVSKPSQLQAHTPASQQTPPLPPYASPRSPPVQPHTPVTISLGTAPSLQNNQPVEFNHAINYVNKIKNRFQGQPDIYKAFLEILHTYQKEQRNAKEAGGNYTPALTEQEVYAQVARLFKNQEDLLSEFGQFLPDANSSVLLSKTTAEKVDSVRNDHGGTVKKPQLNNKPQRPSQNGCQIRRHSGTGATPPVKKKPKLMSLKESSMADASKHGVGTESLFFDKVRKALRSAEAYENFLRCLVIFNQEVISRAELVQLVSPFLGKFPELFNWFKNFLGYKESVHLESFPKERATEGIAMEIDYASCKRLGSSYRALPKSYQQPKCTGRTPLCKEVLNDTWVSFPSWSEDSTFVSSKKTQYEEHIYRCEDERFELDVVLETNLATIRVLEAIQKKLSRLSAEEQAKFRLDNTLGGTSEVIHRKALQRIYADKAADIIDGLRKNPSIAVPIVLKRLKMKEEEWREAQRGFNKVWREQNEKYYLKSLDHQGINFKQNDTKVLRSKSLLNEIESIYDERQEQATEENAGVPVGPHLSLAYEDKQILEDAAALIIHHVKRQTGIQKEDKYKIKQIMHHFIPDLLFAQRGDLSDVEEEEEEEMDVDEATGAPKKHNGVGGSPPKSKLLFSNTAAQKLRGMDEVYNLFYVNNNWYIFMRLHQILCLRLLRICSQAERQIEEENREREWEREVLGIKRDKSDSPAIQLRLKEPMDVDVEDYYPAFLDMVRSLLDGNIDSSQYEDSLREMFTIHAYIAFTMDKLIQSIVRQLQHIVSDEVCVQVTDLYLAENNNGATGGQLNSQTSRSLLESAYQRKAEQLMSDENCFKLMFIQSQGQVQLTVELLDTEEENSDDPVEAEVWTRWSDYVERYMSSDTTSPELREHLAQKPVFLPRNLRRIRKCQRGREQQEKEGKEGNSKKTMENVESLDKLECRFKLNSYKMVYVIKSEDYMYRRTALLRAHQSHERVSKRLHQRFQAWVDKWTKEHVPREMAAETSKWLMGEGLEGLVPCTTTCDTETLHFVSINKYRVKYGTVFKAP
Description: co-IP; RAW264.7 cells transfected with Sin3a or mutant plasmids (pEGFP-N1), under LPS treatment; precipitated by anti-GFP antibody, western blot. (A western blot detects proteins with antibodies after separation by electrophoresis.)

The target in experiment [2] is Forkhead Box O1 (FoxO1) (mouse (endogenous in RAW264.7 and in primary mouse macrophages)) (UniProt Q9R1E0). Kind of experiment: co-IP; Tim4+ primary macrophages from FoxO1 FL/FL and FoxO1 M-KO septic mice; western blot of the immunoprecipitate.
Experiment [3] has the same target. Description: co-IP; lysate of RAW264.7 cells under 24 h LPS treatment; anti-FoxO1 antibody or IgG, Protein A/G agarose beads, western blot.

No constants are given. Whether binding was seen depends on the method and setting. Binding seen in cells or lysates may run through a third protein. Some results given as binding are weak or reduced against the parent protein; the word gives no strength. For part of these data: Tags and fused reporters may be left off the sequences shown.

As to “Forkhead Box O1 (FoxO1) (from UniProt Q9R1E0 1-652)”, the binding result in experiment [1] is reported as “binds”.

B1: SIN3 transcription regulator family member A (Sin3a) (protein, UniProt Q60520-1 1-1277)
chain: MKRRLDDQESPVYAAQQRRIPGSTEAFSHQHRVLAPAPPVYEAVSETMQSATGIQYSVAPNYQVSAVPQSSGSHGPAIAAVHSSHHHPTAVQPHGGQVVQSHAHPAPPVAPVQGQQQFQRLKVEDALSYLDQVKLQFGSQPQVYNDFLDIMKEFKSQSIDTPGVISRVSQLFKGHPDLIMGFNTFLPPGYKIEVQTNDMVNVTTPGQVHQIPTHGIQPQPQPPPQHPSQPSSQSAPTPAQPAPQPTAAKVSKPSQLQAHTPASQQTPPLPPYASPRSPPVQPHTPVTISLGTAPSLQNNQPVEFNHAINYVNKIKNRFQGQPDIYKAFLEILHTYQKEQRNAKEAGGNYTPALTEQEVYAQVARLFKNQEDLLSEFGQFLPDANSSVLLSKTTAEKVDSVRNDHGGTVKKPQLNNKPQRPSQNGCQIRRHSGTGATPPVKKKPKLMSLKESSMADASKHGVGTESLFFDKVRKALRSAEAYENFLRCLVIFNQEVISRAELVQLVSPFLGKFPELFNWFKNFLGYKESVHLESFPKERATEGIAMEIDYASCKRLGSSYRALPKSYQQPKCTGRTPLCKEVLNDTWVSFPSWSEDSTFVSSKKTQYEEHIYRCEDERFELDVVLETNLATIRVLEAIQKKLSRLSAEEQAKFRLDNTLGGTSEVIHRKALQRIYADKAADIIDGLRKNPSIAVPIVLKRLKMKEEEWREAQRGFNKVWREQNEKYYLKSLDHQGINFKQNDTKVLRSKSLLNEIESIYDERQEQATEENAGVPVGPHLSLAYEDKQILEDAAALIIHHVKRQTGIQKEDKYKIKQIMHHFIPDLLFAQRGDLSDVEEEEEEEMDVDEATGAPKKHNGVGGSPPKSKLLFSNTAAQKLRGMDEVYNLFYVNNNWYIFMRLHQILCLRLLRICSQAERQIEEENREREWEREVLGIKRDKSDSPAIQLRLKEPMDVDVEDYYPAFLDMVRSLLDGNIDSSQYEDSLREMFTIHAYIAFTMDKLIQSIVRQLQHIVSDEVCVQVTDLYLAENNNGATGGQLNSQTSRSLLESAYQRKAEQLMSDENCFKLMFIQSQGQVQLTVELLDTEEENSDDPVEAEVWTRWSDYVERYMSSDTTSPELREHLAQKPVFLPRNLRRIRKCQRGREQQEKEGKEGNSKKTMENVESLDKLECRFKLNSYKMVYVIKSEDYMYRRTALLRAHQSHERVSKRLHQRFQAWVDKWTKEHVPREMAAETSKWLMGEGLEGLVPCTTTCDTETLHFVSINKYRVKYGTVFKAP
In the case of B1, the binding entry in experiment [2] and in experiment [3] was “binds” each time.
